Experimental data as given in the supplement of paper PMC10849652.
The other results are listed elsewhere or left out.

Chains of the proteins cited; added tags and fusions are not shown. Lines headed by an entry give the natural chain unless they say otherwise; changes in a name come on top.
UniProt Q8TDX7: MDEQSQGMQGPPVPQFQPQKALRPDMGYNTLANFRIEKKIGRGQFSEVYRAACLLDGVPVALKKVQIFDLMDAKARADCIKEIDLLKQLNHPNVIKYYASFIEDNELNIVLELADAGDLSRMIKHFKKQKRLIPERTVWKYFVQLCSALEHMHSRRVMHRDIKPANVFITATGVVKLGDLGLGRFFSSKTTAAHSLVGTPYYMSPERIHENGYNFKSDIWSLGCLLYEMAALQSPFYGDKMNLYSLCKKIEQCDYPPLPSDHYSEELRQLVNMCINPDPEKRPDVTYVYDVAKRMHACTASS
UniProt O75414: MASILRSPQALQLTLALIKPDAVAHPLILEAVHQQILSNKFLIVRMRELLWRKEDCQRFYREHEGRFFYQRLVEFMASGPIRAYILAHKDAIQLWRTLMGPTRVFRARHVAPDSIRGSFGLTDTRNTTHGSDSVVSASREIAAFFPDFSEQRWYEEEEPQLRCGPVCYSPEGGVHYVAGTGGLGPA
UniProt Q9Y221: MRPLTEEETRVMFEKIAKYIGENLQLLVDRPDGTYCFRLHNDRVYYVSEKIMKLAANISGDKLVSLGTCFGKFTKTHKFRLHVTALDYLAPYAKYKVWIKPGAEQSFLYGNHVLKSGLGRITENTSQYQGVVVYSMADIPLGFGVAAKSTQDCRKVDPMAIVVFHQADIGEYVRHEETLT
UniProt Q8NC60: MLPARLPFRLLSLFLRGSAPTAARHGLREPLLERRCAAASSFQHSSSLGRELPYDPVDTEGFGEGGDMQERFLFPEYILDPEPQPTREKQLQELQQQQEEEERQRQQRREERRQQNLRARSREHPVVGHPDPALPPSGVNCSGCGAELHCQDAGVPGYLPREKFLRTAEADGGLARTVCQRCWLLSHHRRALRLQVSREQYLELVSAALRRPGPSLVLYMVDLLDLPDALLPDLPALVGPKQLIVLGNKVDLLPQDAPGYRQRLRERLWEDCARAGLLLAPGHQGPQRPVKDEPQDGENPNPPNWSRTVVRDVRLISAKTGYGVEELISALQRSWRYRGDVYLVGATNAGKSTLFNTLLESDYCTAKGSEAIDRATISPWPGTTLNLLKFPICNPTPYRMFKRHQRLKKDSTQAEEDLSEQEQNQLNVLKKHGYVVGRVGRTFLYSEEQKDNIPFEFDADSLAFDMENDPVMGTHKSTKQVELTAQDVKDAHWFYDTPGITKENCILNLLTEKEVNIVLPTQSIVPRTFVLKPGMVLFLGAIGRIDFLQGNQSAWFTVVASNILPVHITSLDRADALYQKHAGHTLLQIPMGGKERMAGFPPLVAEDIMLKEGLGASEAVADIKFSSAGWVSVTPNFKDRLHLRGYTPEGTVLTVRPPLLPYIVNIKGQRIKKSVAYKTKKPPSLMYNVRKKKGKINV
UniProt P10588: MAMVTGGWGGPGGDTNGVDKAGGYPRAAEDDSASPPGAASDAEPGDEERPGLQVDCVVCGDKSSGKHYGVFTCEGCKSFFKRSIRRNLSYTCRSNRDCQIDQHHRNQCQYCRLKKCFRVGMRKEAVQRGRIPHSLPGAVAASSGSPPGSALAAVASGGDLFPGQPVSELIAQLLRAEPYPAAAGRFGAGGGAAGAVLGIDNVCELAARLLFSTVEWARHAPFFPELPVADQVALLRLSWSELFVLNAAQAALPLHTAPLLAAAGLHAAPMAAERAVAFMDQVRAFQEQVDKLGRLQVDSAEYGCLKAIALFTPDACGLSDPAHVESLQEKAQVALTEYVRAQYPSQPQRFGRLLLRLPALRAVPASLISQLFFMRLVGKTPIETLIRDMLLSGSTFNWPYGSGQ
UniProt Q9NQR4: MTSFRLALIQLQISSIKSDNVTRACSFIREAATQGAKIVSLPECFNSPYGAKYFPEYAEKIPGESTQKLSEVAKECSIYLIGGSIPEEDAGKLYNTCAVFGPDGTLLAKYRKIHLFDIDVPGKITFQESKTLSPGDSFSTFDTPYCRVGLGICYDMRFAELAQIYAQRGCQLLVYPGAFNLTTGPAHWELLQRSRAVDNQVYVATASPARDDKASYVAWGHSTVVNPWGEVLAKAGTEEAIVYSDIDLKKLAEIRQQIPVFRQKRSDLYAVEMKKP
UniProt Q9NX24: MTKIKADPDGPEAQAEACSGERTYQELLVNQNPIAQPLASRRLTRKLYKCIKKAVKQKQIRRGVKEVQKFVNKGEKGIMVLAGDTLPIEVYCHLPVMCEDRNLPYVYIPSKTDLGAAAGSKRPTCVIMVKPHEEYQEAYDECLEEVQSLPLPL
UniProt Q8N8Q9: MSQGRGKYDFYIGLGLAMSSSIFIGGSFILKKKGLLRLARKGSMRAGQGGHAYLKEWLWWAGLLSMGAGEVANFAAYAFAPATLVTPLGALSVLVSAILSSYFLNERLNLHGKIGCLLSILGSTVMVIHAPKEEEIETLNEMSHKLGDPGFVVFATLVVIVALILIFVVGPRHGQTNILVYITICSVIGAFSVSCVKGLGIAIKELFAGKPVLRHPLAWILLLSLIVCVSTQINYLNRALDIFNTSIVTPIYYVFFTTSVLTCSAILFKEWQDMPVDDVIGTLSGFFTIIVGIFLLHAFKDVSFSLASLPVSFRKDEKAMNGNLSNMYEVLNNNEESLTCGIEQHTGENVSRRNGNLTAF
UniProt P61916: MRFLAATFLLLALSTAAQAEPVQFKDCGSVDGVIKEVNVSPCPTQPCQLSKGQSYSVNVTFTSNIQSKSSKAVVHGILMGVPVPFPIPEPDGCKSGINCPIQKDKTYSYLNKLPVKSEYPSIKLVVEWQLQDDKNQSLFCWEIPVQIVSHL
UniProt P22392, whole entry, looked up: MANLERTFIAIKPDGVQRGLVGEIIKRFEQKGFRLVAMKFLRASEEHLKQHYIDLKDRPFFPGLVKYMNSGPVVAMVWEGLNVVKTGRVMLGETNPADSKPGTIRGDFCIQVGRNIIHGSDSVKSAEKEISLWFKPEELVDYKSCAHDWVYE
UniProt Q8TAT6: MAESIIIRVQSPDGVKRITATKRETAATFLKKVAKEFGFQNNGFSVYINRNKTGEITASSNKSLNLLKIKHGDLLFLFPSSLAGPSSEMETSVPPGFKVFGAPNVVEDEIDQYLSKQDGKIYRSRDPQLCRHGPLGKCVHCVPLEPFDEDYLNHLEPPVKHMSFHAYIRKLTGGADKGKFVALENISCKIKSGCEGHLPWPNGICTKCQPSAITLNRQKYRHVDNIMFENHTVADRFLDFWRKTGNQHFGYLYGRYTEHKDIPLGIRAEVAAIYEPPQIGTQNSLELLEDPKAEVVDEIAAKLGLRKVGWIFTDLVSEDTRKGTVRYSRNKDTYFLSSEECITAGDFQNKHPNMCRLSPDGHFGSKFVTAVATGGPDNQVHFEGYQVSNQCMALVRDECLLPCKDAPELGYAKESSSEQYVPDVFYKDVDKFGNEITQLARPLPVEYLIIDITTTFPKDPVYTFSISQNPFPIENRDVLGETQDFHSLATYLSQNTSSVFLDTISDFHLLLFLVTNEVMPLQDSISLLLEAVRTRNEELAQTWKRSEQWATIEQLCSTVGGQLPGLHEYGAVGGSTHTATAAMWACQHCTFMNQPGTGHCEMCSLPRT
UniProt Q9UFN0: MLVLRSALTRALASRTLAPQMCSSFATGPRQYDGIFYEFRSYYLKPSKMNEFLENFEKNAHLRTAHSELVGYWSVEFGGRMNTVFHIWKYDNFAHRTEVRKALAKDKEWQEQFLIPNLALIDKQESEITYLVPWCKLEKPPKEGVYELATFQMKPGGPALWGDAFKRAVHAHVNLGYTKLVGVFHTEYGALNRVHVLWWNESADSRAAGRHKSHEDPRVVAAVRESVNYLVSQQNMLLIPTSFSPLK
UniProt Q9Y697: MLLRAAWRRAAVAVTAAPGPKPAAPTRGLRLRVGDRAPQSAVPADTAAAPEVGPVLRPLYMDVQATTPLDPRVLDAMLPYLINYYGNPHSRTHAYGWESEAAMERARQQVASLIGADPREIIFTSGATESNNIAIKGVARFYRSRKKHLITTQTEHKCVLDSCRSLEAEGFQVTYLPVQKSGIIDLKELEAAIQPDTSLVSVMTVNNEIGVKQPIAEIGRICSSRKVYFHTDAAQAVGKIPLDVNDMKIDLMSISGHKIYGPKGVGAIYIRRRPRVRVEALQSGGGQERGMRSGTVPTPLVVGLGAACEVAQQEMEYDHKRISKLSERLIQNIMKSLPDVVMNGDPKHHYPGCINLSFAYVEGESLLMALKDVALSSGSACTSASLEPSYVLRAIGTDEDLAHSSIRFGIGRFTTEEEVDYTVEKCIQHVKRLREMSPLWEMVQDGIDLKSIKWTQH
UniProt Q13232: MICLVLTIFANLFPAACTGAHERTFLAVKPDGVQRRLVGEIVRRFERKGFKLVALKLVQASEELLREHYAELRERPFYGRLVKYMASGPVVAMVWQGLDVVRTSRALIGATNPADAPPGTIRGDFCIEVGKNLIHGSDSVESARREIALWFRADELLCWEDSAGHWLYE
UniProt P06748, whole entry, looked up: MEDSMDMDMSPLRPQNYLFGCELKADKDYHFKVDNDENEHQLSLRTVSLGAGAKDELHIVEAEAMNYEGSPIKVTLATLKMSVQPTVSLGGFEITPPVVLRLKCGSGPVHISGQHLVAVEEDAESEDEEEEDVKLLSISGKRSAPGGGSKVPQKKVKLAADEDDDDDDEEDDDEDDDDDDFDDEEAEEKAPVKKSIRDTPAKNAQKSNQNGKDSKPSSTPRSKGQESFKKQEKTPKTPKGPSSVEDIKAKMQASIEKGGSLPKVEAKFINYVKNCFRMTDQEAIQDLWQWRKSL

Experiments:
Assay in all cases: log2 fold change, soluble protein after heating vs DMSO (PISA); higher = thermal stabilisation; K562 cells, 10 uM, 30 min; active = over 0.2 and 3.5 SD of the protein, either way, in both replicates (recomputed)
[1] = compound: CS(=O)(=O)c1ccc(-c2cnc(N)c(C(=O)Nc3ccccc3)n2)cc1
Outline: (§1)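 Soluble protein was defined as the supernatant after 21,000xg for 90 min. It came from K562 cells at 2×10^6 cells/mL given 10 μM compound for 30 min, heated in aliquots for 3 min across 48°C-58°C, pooled, and extracted in PBS with 0.5% NP-40 at 4°C, and was quantified by TMTpro 16plex LC-MS/MS with equalised channel sums. Thermal stability against control samples, from duplicates, is reported as log2 fold change.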

crizotinib = compound: C[C@@H](Oc1cc(-c2cnn(C3CCNCC3)c2)cnc1N)c1c(Cl)ccc(F)c1Cl [crizotinib]
Outline: as §1

[2] = compound: C[C@@H]1COCCN1C2=NC(=NC(=C2)C3(CC3)S(=O)(=O)C)C4=C5C=CNC5=CC=C4
Outline: as §1

[3] = compound: C[C@H](C1=CC=C(C=C1)C(=O)NC2=C3C=CNC3=NC=C2)N
Outline: as §1

duvelisib = compound: C[C@H](Nc1ncnc2nc[nH]c12)c1cc2cccc(Cl)c2c(=O)n1-c1ccccc1 [duvelisib]
Outline: as §1

gandotinib = compound: Cc1cc(Nc2cc(CN3CCOCC3)c3nc(C)c(Cc4ccc(Cl)cc4F)n3n2)n[nH]1 [gandotinib]
Outline: as §1

tozasertib = compound: Cc1cc(Nc2cc(N3CCN(C)CC3)nc(Sc3ccc(NC(=O)C4CC4)cc3)n2)n[nH]1 [tozasertib]
Outline: as §1

[4] = compound: Cc1cc(SCc2sc(-c3ccc(C(F)(F)F)cc3)nc2C)ccc1OCC(=O)O
Outline: as §1

doramapimod = compound: Cc1ccc(-n2nc(C(C)(C)C)cc2NC(=O)Nc2ccc(OCCN3CCOCC3)c3ccccc23)cc1 [doramapimod]
Outline: as §1

ispinesib = compound: Cc1ccc(C(=O)N(CCCN)[C@@H](c2nc3cc(Cl)ccc3c(=O)n2Cc2ccccc2)C(C)C)cc1 [ispinesib]
Outline: as §1

bafetinib = compound: Cc1ccc(NC(=O)c2ccc(CN3CC[C@H](N(C)C)C3)c(C(F)(F)F)c2)cc1Nc1nccc(-c2cncnc2)n1 [bafetinib]
Outline: as §1

[5] = compound: Cc1cccc(CC(=O)N2CCc3c2ccc(-c2cn(C)c4ncnc(N)c24)c3F)n1
Outline: as §1

nilotinib = compound: Cc1cn(-c2cc(NC(=O)c3ccc(C)c(Nc4nccc(-c5cccnc5)n4)c3)cc(C(F)(F)F)c2)cn1 [nilotinib]
Outline: as §1

[6] = compound: Cc1nc(Nc2n[nH]c3c2CN(C(=O)N[C@H](CN(C)C)c2ccccc2)C3(C)C)c2sccc2n1
Outline: as §1

dasatinib = compound: Cc1nc(Nc2ncc(C(=O)Nc3c(C)cccc3Cl)s2)cc(N2CCN(CCO)CC2)n1 [dasatinib]
Outline: as §1

[7] = compound: Cc1ncc(-c2ccnc(Nc3ccc(S(C)(=O)=O)cc3)n2)n1C(C)C
Outline: as §1

[8] = compound: Cn1cc(-c2ccc3c(c2)CCN3C(=O)Cc2cccc(C(F)(F)F)c2)c2c(N)ncnc21
Outline: as §1

[9] = compound: Cn1cc(-c2ccc3nnc(C(F)(F)c4ccc5ncccc5c4)n3n2)cn1
Outline: as §1

tipifarnib = compound: Cn1cncc1[C@@](N)(c1ccc(Cl)cc1)c1ccc2c(c1)c(-c1cccc(Cl)c1)cc(=O)n2C [tipifarnib]
Outline: as §1

mubritinib = compound: FC(F)(F)c1ccc(/C=C/c2nc(COc3ccc(CCCCn4ccnn4)cc3)co2)cc1 [mubritinib]
Outline: as §1

Measured: log2 fold change

NEK7 (UniProt Q8TDX7)
inactive: [1] -0.034 | crizotinib -0.02 | [2] 0.07 | [3] -0.006 | duvelisib 0.036 | gandotinib -0.036 | tozasertib -0.069 | [4] 0.016 | doramapimod -0.032 | ispinesib -0.001 | bafetinib -0.091 | [5] 0.017 | nilotinib -0.081 | [6] -0.03 | dasatinib -0.102 | [7] 0.03 | [8] 0.11 | [9] -0.02 | tipifarnib -0.028 | mubritinib -0.079

NME6 (UniProt O75414)
inactive: [1] 0.085 | crizotinib 0.166 | [2] 0.056 | [3] 0.008 | duvelisib 0.132 | gandotinib 0.033 | tozasertib 0.037 | [4] -0.013 | doramapimod 0 | ispinesib 0.147 | bafetinib -0.099 | [5] -0.031 | nilotinib 0.028 | [6] 0.001 | dasatinib 0.014 | [7] -0.038 | [8] -0.023 | [9] 0.005 | tipifarnib 0.013 | mubritinib 0.01

NIP7 (UniProt Q9Y221)
inactive: [1] 0.017 | crizotinib -0.134 | [2] -0.275 | [3] 0.367 | duvelisib -0.044 | gandotinib 0.096 | tozasertib 0 | [4] -0.018 | doramapimod 0.157 | ispinesib 0.136 | bafetinib 0.381 | [5] -0.286 | nilotinib -0.109 | [6] 0.001 | dasatinib 0.17 | [7] 0.136 | [8] -0.179 | [9] -0.145 | tipifarnib 0.088 | mubritinib -0.284

NOA1 (UniProt Q8NC60)
inactive: [1] -0.026 | crizotinib 0.076 | [2] -0.162 | [3] 0.01 | duvelisib 0.032 | gandotinib -0.197 | tozasertib -0.13 | [4] 0.016 | doramapimod 0.047 | ispinesib -0.079 | bafetinib -0.064 | [5] -0.016 | nilotinib -0.108 | [6] -0.024 | dasatinib -0.092 | [7] -0.077 | [8] 0.006 | [9] -0.1 | tipifarnib 0.071 | mubritinib -0.13

NR2F6 (UniProt P10588)
inactive: [1] -0.104 | crizotinib -0.023 | [2] 0.123 | [3] -0.107 | duvelisib 0.052 | gandotinib 0.053 | tozasertib -0.081 | [4] -0.086 | doramapimod -0.003 | ispinesib 0.074 | bafetinib 0.027 | [5] -0.029 | nilotinib -0.103 | [6] -0.054 | dasatinib -0.036 | [7] 0.03 | [8] 0.001 | [9] -0.159 | tipifarnib 0.084 | mubritinib 0.062

NIT2 (UniProt Q9NQR4)
inactive: [1] 0.046 | crizotinib 0.047 | [2] 0.105 | [3] -0.042 | duvelisib 0.076 | gandotinib 0.057 | tozasertib -0.012 | [4] -0.02 | doramapimod -0.046 | ispinesib -0.025 | bafetinib -0.061 | [5] -0.02 | nilotinib -0.029 | [6] 0.011 | dasatinib 0.019 | [7] 0.011 | [8] 0.026 | [9] 0.063 | tipifarnib -0.024 | mubritinib 0.006

NHP2 (UniProt Q9NX24)
inactive: [1] -0.13 | crizotinib 0.095 | [2] -0.098 | [3] 0.202 | duvelisib -0.081 | gandotinib 0.076 | tozasertib -0.02 | [4] -0.071 | doramapimod -0.042 | ispinesib 0.066 | bafetinib 0.072 | [5] -0.027 | nilotinib 0.016 | [6] -0.006 | dasatinib 0.193 | [7] 0.067 | [8] -0.123 | [9] -0.021 | tipifarnib 0.039 | mubritinib -0.007

NRAS (UniProt P01111)
inactive: [1] 0.05 | crizotinib 0.103 | [2] 0.005 | [3] -0.06 | duvelisib -0.02 | gandotinib -0.04 | tozasertib -0.086 | [4] -0.035 | doramapimod -0.019 | ispinesib 0.048 | bafetinib -0.023 | [5] 0.012 | nilotinib 0.009 | [6] 0.002 | dasatinib 0.03 | [7] -0.007 | [8] 0.054 | [9] 0.031 | tipifarnib 0.001 | mubritinib 0.028

Two entries drawn at random from those above, as already listed:
NOA1 (UniProt Q8NC60)
inactive: [1] -0.026 | crizotinib 0.076 | [2] -0.162 | [3] 0.01 | duvelisib 0.032 | gandotinib -0.197 | tozasertib -0.13 | [4] 0.016 | doramapimod 0.047 | ispinesib -0.079 | bafetinib -0.064 | [5] -0.016 | nilotinib -0.108 | [6] -0.024 | dasatinib -0.092 | [7] -0.077 | [8] 0.006 | [9] -0.1 | tipifarnib 0.071 | mubritinib -0.13

NIT2 (UniProt Q9NQR4)
inactive: [1] 0.046 | crizotinib 0.047 | [2] 0.105 | [3] -0.042 | duvelisib 0.076 | gandotinib 0.057 | tozasertib -0.012 | [4] -0.02 | doramapimod -0.046 | ispinesib -0.025 | bafetinib -0.061 | [5] -0.02 | nilotinib -0.029 | [6] 0.011 | dasatinib 0.019 | [7] 0.011 | [8] 0.026 | [9] 0.063 | tipifarnib -0.024 | mubritinib 0.006

(list continues)

NIPA2 (UniProt Q8N8Q9)
inactive: [1] 0.076 | crizotinib 0.031 | [2] -0.008 | [3] -0.344 | duvelisib -0.042 | gandotinib -0.077 | tozasertib -0.002 | [4] 0.164 | doramapimod 0.036 | ispinesib -0.024 | bafetinib -0.073 | [5] 0.067 | nilotinib 0.152 | [6] -0.049 | dasatinib -0.211 | [7] 0.009 | [8] 0.019 | [9] 0.017 | tipifarnib -0.042 | mubritinib -0.086

NPC2 (UniProt P61916)
inactive: [1] -0.009 | crizotinib 0.011 | [2] 0.018 | [3] -0.047 | duvelisib 0.034 | gandotinib 0.08 | tozasertib 0.03 | [4] -0.045 | doramapimod -0.055 | ispinesib 0.002 | bafetinib -0.084 | [5] -0.029 | nilotinib 0.028 | [6] -0.013 | dasatinib 0.054 | [7] -0.009 | [8] 0.035 | [9] 0.028 | tipifarnib 0.016 | mubritinib 0.014

NME2 isoform 2 (UniProt P22392)
inactive: [1] 0.001 | crizotinib 0.035 | [2] 0.049 | [3] 0.002 | duvelisib 0.045 | gandotinib 0.011 | tozasertib -0.03 | [4] -0.042 | doramapimod -0.004 | ispinesib 0.017 | bafetinib -0.041 | [5] -0.046 | nilotinib 0.004 | [6] 0.02 | dasatinib 0.04 | [7] -0.011 | [8] 0.031 | [9] 0.012 | tipifarnib 0.009 | mubritinib 0.037

NPLOC4 isoform 2 (UniProt Q8TAT6)
inactive: [1] 0.006 | crizotinib 0.007 | [2] 0.084 | [3] -0.057 | duvelisib 0.011 | gandotinib -0.016 | tozasertib -0.007 | [4] 0.004 | doramapimod -0.033 | ispinesib 0.028 | bafetinib -0.055 | [5] 0.011 | nilotinib -0.014 | [6] -0.015 | dasatinib -0.021 | [7] -0.013 | [8] 0.048 | [9] 0.04 | tipifarnib 0.004 | mubritinib 0.051

NIPSNAP3A (UniProt Q9UFN0)
inactive: [1] 0.021 | crizotinib 0.043 | [2] 0.01 | [3] -0.067 | duvelisib -0.008 | gandotinib 0.047 | tozasertib 0 | [4] -0.06 | doramapimod -0.002 | ispinesib -0.026 | bafetinib -0.055 | [5] 0.013 | nilotinib 0.035 | [6] 0 | dasatinib 0.035 | [7] 0.009 | [8] -0.009 | [9] 0.011 | tipifarnib 0.047 | mubritinib 0.047

NFS1 (UniProt Q9Y697)
inactive: [1] 0.026 | crizotinib 0.071 | [2] 0.084 | [3] -0.03 | duvelisib 0.065 | gandotinib 0 | tozasertib -0.036 | [4] 0.024 | doramapimod -0.031 | ispinesib 0.075 | bafetinib -0.026 | [5] 0.006 | nilotinib -0.015 | [6] 0.001 | dasatinib -0.025 | [7] 0.013 | [8] 0.035 | [9] 0.023 | tipifarnib -0.011 | mubritinib 0.023

NME3 (UniProt Q13232)
inactive: [1] 0.021 | crizotinib 0.063 | [2] -0.01 | [3] 0.016 | duvelisib 0.012 | gandotinib -0.019 | tozasertib -0.02 | [4] -0.043 | doramapimod -0.025 | ispinesib 0.053 | bafetinib -0.036 | [5] -0.014 | nilotinib -0.006 | [6] 0.023 | dasatinib 0.056 | [7] -0.029 | [8] -0.005 | [9] 0.089 | tipifarnib 0.059 | mubritinib 0.017

NPM1 (UniProt P06748)
inactive: [1] -0.094 | crizotinib 0.005 | [2] -0.311 | [3] 0.299 | duvelisib -0.159 | gandotinib 0.114 | tozasertib 0.001 | [4] -0.009 | doramapimod 0.13 | ispinesib -0.099 | bafetinib 0.233 | [5] -0.073 | nilotinib 0.068 | [6] 0.104 | dasatinib 0.184 | [7] -0.036 | [8] -0.224 | [9] -0.199 | tipifarnib 0.09 | mubritinib -0.166
